For the assay, the target named is mouse Chek2-Flag (Checkpoint kinase 2, FLAG-tagged, overexpressed in GL261 glioma cells) (mouse) (UniProt Q9Z265). Description: affinity purification with mass spectrometry.

Amino acid sequences for entries named in this document (tags omitted).
UniProt Q9Z265: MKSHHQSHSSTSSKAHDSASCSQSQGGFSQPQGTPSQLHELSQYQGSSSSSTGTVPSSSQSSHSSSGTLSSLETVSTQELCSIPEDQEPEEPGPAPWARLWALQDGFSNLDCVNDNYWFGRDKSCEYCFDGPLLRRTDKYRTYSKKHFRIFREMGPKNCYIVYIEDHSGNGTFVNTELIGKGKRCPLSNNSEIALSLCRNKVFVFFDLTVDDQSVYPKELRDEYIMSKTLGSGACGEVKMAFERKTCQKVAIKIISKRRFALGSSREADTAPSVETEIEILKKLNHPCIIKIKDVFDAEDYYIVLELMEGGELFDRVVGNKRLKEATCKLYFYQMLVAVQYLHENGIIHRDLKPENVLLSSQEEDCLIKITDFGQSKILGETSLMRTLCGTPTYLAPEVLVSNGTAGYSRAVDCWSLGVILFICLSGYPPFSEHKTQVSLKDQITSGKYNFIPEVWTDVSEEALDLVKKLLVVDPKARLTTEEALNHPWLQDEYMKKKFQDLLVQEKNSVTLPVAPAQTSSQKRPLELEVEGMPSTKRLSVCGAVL
UniProt Q8BPN8: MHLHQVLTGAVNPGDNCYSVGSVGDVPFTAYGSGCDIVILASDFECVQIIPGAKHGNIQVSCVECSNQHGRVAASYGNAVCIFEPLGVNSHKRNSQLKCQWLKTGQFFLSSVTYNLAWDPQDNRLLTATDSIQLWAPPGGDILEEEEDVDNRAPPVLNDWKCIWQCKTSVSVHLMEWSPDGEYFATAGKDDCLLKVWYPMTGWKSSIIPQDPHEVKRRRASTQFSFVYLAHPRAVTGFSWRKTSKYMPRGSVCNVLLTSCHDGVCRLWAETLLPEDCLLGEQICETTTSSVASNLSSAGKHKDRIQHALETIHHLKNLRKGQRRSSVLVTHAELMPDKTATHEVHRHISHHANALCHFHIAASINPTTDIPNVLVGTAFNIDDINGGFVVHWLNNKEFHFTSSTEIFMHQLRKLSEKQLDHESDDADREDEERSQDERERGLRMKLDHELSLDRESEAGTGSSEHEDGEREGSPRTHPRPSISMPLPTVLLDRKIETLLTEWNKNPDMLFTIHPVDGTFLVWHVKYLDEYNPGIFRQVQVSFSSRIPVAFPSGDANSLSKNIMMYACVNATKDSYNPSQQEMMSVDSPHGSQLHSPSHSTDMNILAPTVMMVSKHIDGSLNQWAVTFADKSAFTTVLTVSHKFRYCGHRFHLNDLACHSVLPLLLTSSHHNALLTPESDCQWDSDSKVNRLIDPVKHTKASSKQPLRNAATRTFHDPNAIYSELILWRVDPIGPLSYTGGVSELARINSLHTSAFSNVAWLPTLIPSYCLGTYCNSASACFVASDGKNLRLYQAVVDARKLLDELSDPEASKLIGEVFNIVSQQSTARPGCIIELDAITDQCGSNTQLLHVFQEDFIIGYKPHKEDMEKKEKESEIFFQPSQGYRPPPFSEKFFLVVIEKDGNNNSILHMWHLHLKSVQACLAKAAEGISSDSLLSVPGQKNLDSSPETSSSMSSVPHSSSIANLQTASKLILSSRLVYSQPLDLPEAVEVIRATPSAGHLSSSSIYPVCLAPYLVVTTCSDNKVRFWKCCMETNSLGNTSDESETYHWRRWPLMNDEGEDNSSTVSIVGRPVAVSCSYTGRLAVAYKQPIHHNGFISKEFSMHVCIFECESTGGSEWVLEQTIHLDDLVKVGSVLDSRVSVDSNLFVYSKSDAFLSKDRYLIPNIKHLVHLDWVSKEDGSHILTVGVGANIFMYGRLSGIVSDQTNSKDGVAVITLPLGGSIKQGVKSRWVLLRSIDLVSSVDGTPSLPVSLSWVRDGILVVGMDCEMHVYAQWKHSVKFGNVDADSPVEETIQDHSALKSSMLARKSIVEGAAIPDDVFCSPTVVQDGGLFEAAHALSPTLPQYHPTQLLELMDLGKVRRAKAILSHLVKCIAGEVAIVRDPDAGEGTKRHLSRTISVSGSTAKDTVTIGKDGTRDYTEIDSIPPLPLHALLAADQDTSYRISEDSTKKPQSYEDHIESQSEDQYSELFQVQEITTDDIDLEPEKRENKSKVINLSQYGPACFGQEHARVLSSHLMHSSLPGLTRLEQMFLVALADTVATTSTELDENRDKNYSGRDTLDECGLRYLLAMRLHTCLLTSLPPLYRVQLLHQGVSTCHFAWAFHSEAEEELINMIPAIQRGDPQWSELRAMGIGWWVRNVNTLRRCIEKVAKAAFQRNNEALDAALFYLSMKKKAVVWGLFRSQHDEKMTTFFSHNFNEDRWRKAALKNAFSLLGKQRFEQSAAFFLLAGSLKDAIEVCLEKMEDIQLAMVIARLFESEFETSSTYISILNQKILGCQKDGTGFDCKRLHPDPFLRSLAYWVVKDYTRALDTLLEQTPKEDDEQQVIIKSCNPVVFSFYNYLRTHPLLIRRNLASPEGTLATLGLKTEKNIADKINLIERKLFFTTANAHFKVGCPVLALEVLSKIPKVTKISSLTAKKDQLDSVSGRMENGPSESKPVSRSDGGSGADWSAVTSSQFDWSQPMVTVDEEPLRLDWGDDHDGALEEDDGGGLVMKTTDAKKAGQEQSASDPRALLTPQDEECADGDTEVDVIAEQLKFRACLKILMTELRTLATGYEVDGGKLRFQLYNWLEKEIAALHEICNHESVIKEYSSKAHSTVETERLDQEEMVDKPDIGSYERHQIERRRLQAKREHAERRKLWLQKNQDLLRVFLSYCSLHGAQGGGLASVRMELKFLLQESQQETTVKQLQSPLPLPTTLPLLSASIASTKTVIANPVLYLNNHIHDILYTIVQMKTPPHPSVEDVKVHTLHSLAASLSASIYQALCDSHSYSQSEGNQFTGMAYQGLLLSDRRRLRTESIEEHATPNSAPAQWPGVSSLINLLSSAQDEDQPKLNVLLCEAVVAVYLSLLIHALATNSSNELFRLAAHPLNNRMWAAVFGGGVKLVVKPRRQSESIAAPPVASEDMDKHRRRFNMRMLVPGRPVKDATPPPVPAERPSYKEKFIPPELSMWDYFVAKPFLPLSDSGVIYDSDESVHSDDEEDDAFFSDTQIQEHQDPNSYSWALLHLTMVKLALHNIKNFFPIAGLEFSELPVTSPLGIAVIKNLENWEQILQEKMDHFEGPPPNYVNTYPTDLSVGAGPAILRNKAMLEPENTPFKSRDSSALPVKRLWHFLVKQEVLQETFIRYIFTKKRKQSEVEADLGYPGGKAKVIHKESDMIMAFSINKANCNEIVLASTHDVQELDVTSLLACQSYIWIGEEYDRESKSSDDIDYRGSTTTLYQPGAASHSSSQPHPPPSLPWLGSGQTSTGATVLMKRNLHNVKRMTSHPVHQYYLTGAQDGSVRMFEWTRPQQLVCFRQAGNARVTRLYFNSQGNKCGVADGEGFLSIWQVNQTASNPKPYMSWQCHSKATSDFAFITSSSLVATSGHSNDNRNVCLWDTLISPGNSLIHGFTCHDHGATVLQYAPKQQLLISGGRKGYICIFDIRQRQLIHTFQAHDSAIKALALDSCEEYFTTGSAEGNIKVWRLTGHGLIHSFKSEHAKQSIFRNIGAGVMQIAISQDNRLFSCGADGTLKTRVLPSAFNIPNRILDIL

These are yes or no findings as the source states them, for the method shown. In cells and extracts the contact can be indirect. Here binding means that the protein was enriched with, or labelled near, the bait; the list need not be complete.

Consider “DmX-like protein 2 (DMXL2) (from UniProt Q8BPN8 1-3032)”, for which the binding entry is “binds”.

B1: vesicular glutamate transporter 2 (Slc17a6) (protein, UniProt Q8BLE7 1-582)
chain: MESVKQRILAPGKEGIKNFAGKSLGQIYRVLEKKQDNRETIELTEDGKPLEVPEKKAPLCDCTCFGLPRRYIIAIMSGLGFCISFGIRCNLGVAIVDMVNNSTIHRGGKVIKEKAKFNWDPETVGMIHGSFFWGYIITQIPGGYIASRLAANRVFGAAILLTSTLNMLIPSAARVHYGCVIFVRILQGLVEGVTYPACHGIWSKWAPPLERSRLATTSFCGSYAGAVIAMPLAGILVQYTGWSSVFYVYGSFGMVWYMFWLLVSYESPAKHPTITDEERRYIEESIGESANLLGAMEKFKTPWRKFFTSMPVYAIIVANFCRSWTFYLLLISQPAYFEEVFGFEISKVGMLSAVPHLVMTIIVPIGGQIADFLRSKQILSTTTVRKIMNCGGFGMEATLLLVVGYSHTRGVAISFLVLAVGFSGFAISGFNVNHLDIAPRYASILMGISDGVGTLSGMVCPIIVGAMTKNKSREEWQYVFLIAALVHYGGVIFYALFASGEKQPWADPEETSEEKCGFIHEDELDEETGDITQNYINYGTTKSYGATSQENGGWPNGWEKKEEFVQEGAQDAYTYKDRDDYS
In the case of B1, the binding entry is given as “binds”.

(Values after paper doi:10.1101/2025.03.09.642289.)
